{"source": "paper PMC12040169", "about": "(PLOS Biology, 2025)", "note": "Some of the results follow.", "data": [{"test_system": "T1, CTL2-GFP (C. trachomatis L2/434/Bu, GFP-expressing)", "T1 construct": "L2/434/Bu, GFP-expressing", "parameters": "species or system HeLa; Intracellular C. trachomatis growth in HeLa cells, bulk GFP fluorescence relative to DMSO", "conditions": "bulk GFP, single well; 28.5 h, 10 µM; inhibitor", "units": {"% of control remaining": "%"}, "values": [{"smiles": "Cn1cc(CN(C(=O)c2nc(N)nc3c2CCCC3)C2CC2)cn1", "note": "[CBK307352]", "% of control remaining": 131.044}, {"smiles": "c1cc(CCNc2nccn3ccnc23)ccn1", "note": "[CBK037976]", "% of control remaining": 172.039}, {"smiles": "Cc1cc(C(=O)N2CCN(Cc3ccc4c(c3)OCO4)CC2)nn1C", "note": "[CBK074832]", "% of control remaining": 103.535}, {"smiles": "O=C(NCCc1ccncc1)c1cccs1", "note": "[CBK056969]", "% of control remaining": 143.552}, {"smiles": "CCOC(=O)Cc1nnc(-c2ccc(Cl)cc2)[nH]1", "note": "[CBK021882]", "% of control remaining": 101.638}, {"smiles": "Cc1ccc2nc(-c3ccc(-c4ccc(C(C)C)cc4)o3)cc(C(=O)O)c2c1", "note": "[CBK300083]", "% of control remaining": 67.14}, {"smiles": "O=C(Nc1cccnc1)N1CCN(c2ccc(F)cc2)CC1", "note": "[CBK156427]", "% of control remaining": 95.394}, {"smiles": "COc1ccccc1CN(C)S(=O)(=O)c1ccc(S(N)(=O)=O)cc1", "note": "[CBK306008]", "% of control remaining": 116.565}, {"smiles": "COc1ccc(CC(=O)N2CCC(c3cc4ccccc4cn3)C2)cc1", "note": "(stereo not drawn) [CBK283421]", "% of control remaining": 87.9146}, {"smiles": "CCCc1cc(=O)[nH]c(SCc2noc(-c3snnc3C)n2)n1", "note": "[CBK006474]", "% of control remaining": 116.408}, {"smiles": "CCN1C(=O)c2ccccc2C(=O)[C@@]2(C)CN(CC(C)C)C[C@@H]12", "note": "[CBK283479]", "% of control remaining": 120.396}, {"smiles": "O=C1CSC2(C(=O)Nc3ccccc32)N1c1cccc(F)c1", "note": "(stereo not drawn) [CBK093488]", "% of control remaining": 91}, {"smiles": "CC(C)(C)OC(=O)N(CCCN1CCN(c2ccc(F)cc2)CC1)c1ccccc1", "note": "[CBK016723]", "% of control remaining": 109.302}, {"smiles": "O=C(N/N=C/c1cc(O)c(Br)cc1Br)c1ccncc1", "note": "[CBK262297]", "% of control remaining": 124.447}, {"smiles": "COc1ccc2[nH]c3c(c2c1)CCOC31CCN(C(=O)N[C@@H](C)c2ccccc2)CC1", "note": "[CBK047114]", "% of control remaining": 126.287}, {"smiles": "CN(C)c1ncc(-c2cccc(Cl)c2)c(C2CCCN2C(=O)CC2CCCC2)n1", "note": "(stereo not drawn) [CBK286253]", "% of control remaining": 41.742}, {"smiles": "CC(O)CNCc1ccc(OCC(=O)NC(C)(C)C)cc1", "note": "(stereo not drawn) [CBK270232C]", "% of control remaining": 110.941}, {"smiles": "CCn1cc(CN(CC(C)C)C(=O)c2ccccc2C#N)cn1", "note": "[CBK306729]", "% of control remaining": 116.728}, {"smiles": "COc1ccc(CC(=O)N2CCCCC2c2ccc(Cc3cccc(F)c3)nc2)cc1", "note": "(stereo not drawn) [CBK286493]", "% of control remaining": 107.592}, {"smiles": "Cc1cc(NC(=O)c2ccc(N3C(=O)CCC3=O)cc2)nc2c1c(=O)oc1ccccc12", "note": "[CBK291205]", "% of control remaining": 145.836}, {"smiles": "O=S(=O)(NCCn1cccc1)c1ccc2ccccc2c1", "note": "[CBK270211]", "% of control remaining": 137.749}, {"smiles": "c1ccc2c(CCN3CCC(Oc4cncc(OCCN5CCOCC5)n4)C3)c[nH]c2c1", "note": "(stereo not drawn) [CBK084500]", "% of control remaining": 118.072}, {"smiles": "Cc1nc2c(cc(OCC(O)COc3ccc(C#N)cc3)c3ccsc32)s1", "note": "(stereo not drawn) [CBK296632]", "% of control remaining": 181.557}, {"smiles": "CCCCC(C(=O)O)N1C(=O)c2ccccc2C1=O", "note": "(stereo not drawn) [CBK287153]", "% of control remaining": 114.407}, {"smiles": "CC(C)(C)c1nc(NS(=O)(=O)c2ccc(Cl)cc2)sc1Br", "note": "[CBK014258]", "% of control remaining": 123.223}, {"smiles": "O=C(O)[C@@H]1CCCN1C(=O)CCn1nnc2ccccc2c1=O", "note": "[CBK286765]", "% of control remaining": 165.685}, {"smiles": "Cn1nnnc1SCC(=O)Nc1cc(F)ccc1F", "note": "[CBK057872]", "% of control remaining": 128.955}, {"smiles": "CCCC(=O)c1ccc(S(=O)(=O)N2CCN(Cc3c[nH]nc3-c3cccs3)CC2)cc1", "note": "[CBK063160]", "% of control remaining": 124.652}, {"smiles": "Cc1cc(C)n(Cc2cc(C(=O)NCC(C)Oc3cccnc3)n[nH]2)n1", "note": "(stereo not drawn) [CBK307609]", "% of control remaining": 139.875}, {"smiles": "O=C(CCNS(=O)(=O)c1ccc(Cl)cc1)N1CCN(Cc2ccccc2)CC1", "note": "[CBK269405]", "% of control remaining": 112.04}, {"smiles": "CC1CN(CCOc2ccccc2C=O)CC(C)O1", "note": "(stereo not drawn) [CBK269687C]", "% of control remaining": 106.561}, {"smiles": "Cc1cccc(OC(C)C(=O)Nc2ccccc2C(=O)N2CCCCC2)c1", "note": "(stereo not drawn) [CBK269960]", "% of control remaining": 112.525}, {"smiles": "Cc1n[nH]c(C)c1CNC(=O)CCc1ccc(Cl)cc1", "note": "[CBK283185]", "% of control remaining": 109.712}, {"smiles": "Fc1ccc(CNc2c(-c3ccco3)nc3cnccn23)cc1", "note": "[CBK283694]", "% of control remaining": 163.735}, {"smiles": "O=C(O)c1cccnc1SC1CC(=O)N(c2ccc([N+](=O)[O-])cc2)C1=O", "note": "(stereo not drawn) [CBK263079]", "% of control remaining": 115.673}, {"smiles": "S=C(NCCCN1CCOCC1)Nc1cccc(Cl)c1", "note": "[CBK263255]", "% of control remaining": 95.7183}, {"smiles": "COCC(=O)N[C@H]1C[C@H]2C(=O)Nc3ccc(Br)cc3C(=O)N2C1", "note": "[CBK289357]", "% of control remaining": 140.868}, {"smiles": "O=C(CC1CCCCC1)N1CCN(c2ncccn2)CC1", "note": "[CBK144529]", "% of control remaining": 144.366}, {"smiles": "COc1ccc(OC)c(-c2ccc(NC(=O)c3ccc(Cl)cc3Cl)c(C(=O)O)c2)c1", "note": "[CBK000393D]", "% of control remaining": 136.393}, {"smiles": "CC(/C=C1\\SC(=S)N(C(Cc2ccccc2)C(=O)O)C1=O)=C\\c1ccccc1", "note": "(stereo not drawn) [CBK263524]", "% of control remaining": 100}, {"smiles": "CC(CC(=O)N1CCCC(c2cc3cccnc3[nH]2)C1)n1cccn1", "note": "(stereo not drawn) [CBK284996]", "% of control remaining": 107.432}, {"smiles": "CCc1c(C)nc2ccccc2c1SCCC(=O)O", "note": "[CBK116382C]", "% of control remaining": 131.218}, {"smiles": "COc1ccc(S(=O)(=O)NCCCn2ccnc2)cc1Cl", "note": "[CBK269997]", "% of control remaining": 100.033}, {"smiles": "O=C(CSc1ccccc1)Nc1cc(Cl)ccc1O", "note": "[CBK265837]", "% of control remaining": 168.928}, {"smiles": "O=C(NCc1ccc(F)cc1)[C@H]1CN2CCC1C[C@@H]2Cn1cc(C2(O)CCCC2)nn1", "note": "(stereo partly drawn) [CBK289093]", "% of control remaining": 97.756}, {"smiles": "CCCCOc1ccc(C=Cc2nc3sc(C(=O)O)c(C)c3c(=O)[nH]2)cc1", "note": "[CBK297524]", "% of control remaining": 119.829}, {"smiles": "COC(=O)c1cc(O)ccc1N", "note": "[CBK002250]", "% of control remaining": 117.629}, {"smiles": "CC1(C)CC(=O)c2sc(NC(=O)Nc3ccccc3)nc2C1", "note": "[CBK287319]", "% of control remaining": 122.963}, {"smiles": "O=C(Nc1ccc(Cc2ccc(NC(=O)c3ccc(Br)cc3)c(O)c2)cc1O)c1ccc(Br)cc1", "note": "[CBK262086]", "% of control remaining": 106.205}, {"smiles": "N#CCNS(=O)(=O)c1ccc(OC(F)(F)F)cc1", "note": "[CBK044841]", "% of control remaining": 120.685}, {"smiles": "Cc1ccc(CN(CCCN(C)C)Cc2nccn2C)o1", "note": "[CBK282481]", "% of control remaining": 128.049}]}]}
